According to publication PMC3441911:
Results are given in words; binding and its absence hold for the method and conditions named. Binding seen in cells or lysates may run through a third protein. Some binding calls cover weakened binding; strength is not graded here.

Target: NaV 1.4 sodium channel α subunit (rat (endogenous in gastrocnemius muscle)) (UniProt P15390)
Assay: co-IP; pan-NaV 1.x antibody on protein G dynabeads; gastrocnemius muscle membranes of control and CIM (denervated, dexamethasone 7 days) rats solubilized in 20 mM KPO4 pH 6.5, 180 mM KCl, 1 mM EGTA, 0.5 mM MgCl2, 1% NP40; overnight, 0-4°C; five washes; western blots; IP with blocking peptide as negative control; six separate immunoprecipitations

- binding: binds
Substance: neuronal nitric oxide synthase (from UniProt P29476 1-1429) (enzyme)
